Source: PubChem BioAssay AID2685 (National Center for Advancing Translational Sciences (NCATS), 2010)
The list shows a part of the results. The main result of the screen is listed elsewhere. These columns were measured beside it and carry no call. Most of these compounds were active or inconclusive in the main read-out, so they are no random draw. The note in brackets gives the kind of curve behind each potency; many fits are weak.

Test: qHTS Assay for Lipid Storage Modulators in Drosophila S3 Cells;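 on cell number change: cells counted by Cell Tracker Red CMTPX staining in the red channel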
Details: BODIPY lipid droplet fluorescence, 18-24 h; for cell number change: measured here: cell count max response, cells fed with added oleic acid
Procedure, shortened: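 Drosophila S3 cells got compounds at several concentrations plus oleic acid (400 uM solution). Laser-scanning cytometry with 488 nm excitation read lipid droplets at 500-530 nm and cells at 575-640 nm. Percent activity was relative to 20 uM Triacsin C.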

[1] = measured here: lipid fluorescence (Fed channel) AC50, cells fed with added oleic acid
[2] = measured here: cell number channel AC50, cells fed with added oleic acid

Row | SMILES | AC50 [1] | cell number change [%] | AC50 [2]
1 | N#Cc1c(OCC(=O)c2ccccc2)nc2c(c1-c1ccco1)CCc1ccccc1-2 | 7.31 µM [falling, partial curve] | – | –
2 | COc1ccc(O)c(/C=N/NC(=O)c2c(C)nnn2-c2nonc2N)c1 | – | 11.3 | 6.51 µM [rising, single point]
3 | CC(=O)N/C(=C\c1ccccc1)C(=O)OCc1ccc(F)cc1 | 0.58 µM [rising, single point] | -9.19 | –
4 | Cn1c(=O)[nH]c(=O)c2c1nc(N1CCCC1)n2CCSc1nc2ccccc2[nH]1 | 1.46 µM [falling, full curve] | 22.8 | 4.11 µM [rising, single point]
5 | CC(Oc1ccccc1)C(=O)N1CCN=C1SCc1ccccc1 (centres undefined) | – | 14.8 | –
6 | Cc1c(NC(=O)CSc2ccccn2)c(=O)n(-c2ccccc2)n1C | – | -9.17 | –
7 | O=[n+]1c2c(n([O-])c3ccccc31)CCCC2 | 20.6 µM [falling, partial curve] | -97 | 29.1 µM [falling, partial curve]
8 | O=C(Nc1ccc(Br)cc1)c1cccc(S(=O)(=O)Nc2cnc3ccccc3c2)c1 | 3.26 µM [rising, partial curve] | -16.9 | 2.59 µM [rising, partial curve]
9 | COCCSc1nnc(NC(=O)Cc2ccc(OC)c(OC)c2)s1 | 1.64 µM [falling, partial curve, poor fit] | -6.33 | –
10 | COc1ccc(NC(=O)CSc2nnc(-c3cccnc3)o2)c(OC)c1 | 0.103 µM [rising, full curve, poor fit] | – | –
11 | Cc1nn(CCC#N)c(NC(=O)c2ccc(Cl)cc2Cl)c1P(=O)(Nc1ccc([N+](=O)[O-])cc1)N1CCOCC1 (centres undefined) | 20.6 µM [falling, partial curve] | -1.87 | 0.184 µM [falling, full curve, poor fit]
12 | O=C(NC1(Cc2ccccc2)CCN(Cc2ccc(-c3ccccc3)cc2)C1=O)c1ccccc1 (centres undefined) | 0.116 µM [falling, single point] | -0.776 | –
13 | O=C(Nc1ccc(F)cc1F)c1cc2n(n1)C(C(F)(F)F)C1CCCCC1N2 (centres undefined) | – | 2.07 | –
14 | CCCOC(=O)C1C2C=CC3(CN(c4ccc(Cl)c(F)c4)C(=O)C13)O2 (centres undefined) | 6.51 µM [rising, single point] | 55.7 | 6.51 µM [rising, partial curve]
15 | O=C(CCCc1c[nH]c2ccccc12)NCc1ccccc1F | 29.1 µM [falling, single point] | 11.8 | –
16 | COc1ccc(C2=NS(=O)(=O)N(C)C(C(=O)NCc3ccccn3)=C2)cc1OC | 2.06 µM [rising, partial curve] | 2.88 | –
17 | CC1CCN(C(=O)COC(=O)c2cc(=O)[nH]c3ccccc23)CC1 | – | 5.14 | 0.082 µM [falling, full curve, poor fit]
18 | Cc1ccc(NC(=O)CCl)cc1S(=O)(=O)N1CCCCCC1 | 4.11 µM [falling, full curve, poor fit] | -23.7 | –
19 | CC(=O)Nc1ncc(Cc2cccc(Cl)c2)s1 | 3.66 µM [rising, single point] | 15 | –
20 | CN(C)S(=O)(=O)c1ccc(NC(=O)CSc2nc3ccccc3n2-c2ccccc2)cc1 | 2.31 µM [rising, single point] | -11.4 | –

Row | SMILES | AC50 [1] | cell number change [%] | AC50 [2]
21 | CNC(=O)N(O)C1N(C)C(=O)N(Cc2ccccc2)C1(C)C (centres undefined) | 0.103 µM [falling, full curve, poor fit] | -7.97 | –
22 | COC(=O)c1ccc(C(=O)OC)c(NC(=S)N2CCN(c3cccc(Cl)c3)CC2)c1 | 3.66 µM [falling, single point] | 25.2 | –
23 | Clc1nssc1=Nc1ccc(Br)cc1 | 18.4 µM [falling, single point] | -70.5 | 23.1 µM [falling, single point]
24 | COc1ccc2oc(C)c(NC(C)=O)c2c1 | – | 9.72 | –
25 | Cc1cc(N2CCCC2=O)ccc1S(=O)(=O)Nc1c(C)nn(C)c1C | – | 4.24 | –
26 | Cc1ccccc1C(=NCCCN(C)C)c1ccccc1C | 0.13 µM [falling, full curve, poor fit] | – | –
27 | COc1ccc(Cl)cc1-c1nc(SCC(=O)NC2CC2)n[nH]1 | 6.51 µM [rising, partial curve, poor fit] | 26.7 | –
28 | c1ccc(-n2ncc3c(N4CCN(c5ccccn5)CC4)nc(N4CCOCC4)nc32)cc1 | 0.116 µM [rising, full curve, poor fit] | 12.3 | –
29 | CCOc1ccc(NC(=O)C2CC(=O)N=C(N)S2)cc1 (centres undefined) | – | 31.9 | –
30 | CN(C(=O)CSc1ncnc2sc(-c3ccccc3)cc12)C1CCS(=O)(=O)C1 (centres undefined) | – | 113 | –
31 | Cc1ccc(CN2CC[C@H]3C=CCc4cccc(c43)C2)cc1 | – | -32.7 | 4.61 µM [falling, single point]
32 | CCOC(=O)N1CCC(Nc2cccc(SC)c2)CC1 | 29.1 µM [falling, single point] | -19.6 | –
33 | CN1CCC2(CC1)Nc1nc(SCc3ccc(Cl)cc3)nn1C1=C2CN(C)CC1 | 23.1 µM [rising, single point] | -6.06 | –
34 | Cc1ccc(C2=NC(C)(C)NC2=O)cc1 | – | -73.3 | 18.4 µM [falling, partial curve]
35 | Cn1c(NC(=O)C2CCCO2)cc(=O)n(C)c1=O (centres undefined) | 0.82 µM [falling, full curve] | -4.86 | 0.651 µM [falling, full curve]
36 | CCN(CC(=O)Nc1c(F)cccc1F)C(=O)C1COc2ccccc2O1 (centres undefined) | 1.84 µM [rising, partial curve] | -5.76 | –
37 | O=C(CSC1=NC2(CCCCCC2)N=C1c1ccccc1)Nc1ccc2c(c1)OCCO2 | 9.2 µM [falling, partial curve, poor fit] | -23 | –
38 | CCc1cccc(C)c1NS(=O)(=O)c1cccs1 | – | 6.58 | –
39 | O=C(O)CC/C(=N\Nc1ccc([N+](=O)[O-])cc1S(=O)(=O)N1CCOCC1)c1cccs1 | 29.1 µM [falling, single point] | -1.12 | –

An excerpt from above in order of length of the SMILES, rising.
Row | SMILES | AC50 [1] | cell number change [%] | AC50 [2]
32 | CCOC(=O)N1CCC(Nc2cccc(SC)c2)CC1 | 29.1 µM [falling, single point] | -19.6 | –
35 | Cn1c(NC(=O)C2CCCO2)cc(=O)n(C)c1=O (centres undefined) | 0.82 µM [falling, full curve] | -4.86 | 0.651 µM [falling, full curve]
37 | O=C(CSC1=NC2(CCCCCC2)N=C1c1ccccc1)Nc1ccc2c(c1)OCCO2 | 9.2 µM [falling, partial curve, poor fit] | -23 | –
